Results reported in PubChem BioAssay AID1794845 (National Center for Advancing Translational Sciences (NCATS), 2023).
Fewer than 10 of roughly 6,900 compounds were called active. Calls follow the shape of the dose curve; as a rule, active = well fitted curve in the direction sought with a large enough effect; inconclusive = small, poorly fitted or top-dose-only effect, or another doubt; inactive = no such curve, though single readings can be large or run the other way. This is one part of the list.

Protein sequences, listed by entry. Tags and fused reporters are not part of them. Lines headed by an entry give the natural chain unless they say otherwise; changes in a name come on top.
UniProt C7C422: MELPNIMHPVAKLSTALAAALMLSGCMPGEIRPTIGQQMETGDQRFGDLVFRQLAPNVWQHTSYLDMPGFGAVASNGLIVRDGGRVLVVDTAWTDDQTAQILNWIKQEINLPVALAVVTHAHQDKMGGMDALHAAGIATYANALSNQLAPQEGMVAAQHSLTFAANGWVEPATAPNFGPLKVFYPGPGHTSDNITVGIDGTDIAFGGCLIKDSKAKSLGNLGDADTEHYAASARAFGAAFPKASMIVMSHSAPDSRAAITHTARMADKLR

What follows are compounds tested against Metallo-beta-lactamase type 2 (Klebsiella pneumoniae) (UniProt C7C422) (assay: qHTS to identify inhibitors of the New Delhi Metallo-beta-lactamase (NDM): primary screen against the NCATS Gemini Collection). Settings: NDM-1 enzyme, meropenem hydrolysis, absorbance 300 nm; at 38.4 µM (top of the series) unless noted.
Procedure, shortened: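 Meropenem hydrolysis (50 uM final) by 2 nM NDM-1 read as 300 nm absorbance after 30 min, following >30 min compound–enzyme preincubation in HEPES pH 7.0 with 1 uM ZnSO4 and 0.01% Tween20.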
Also: % of control where 0% means no effect.

Activity % (negative = inhibition), inactive:
Cc1cc(F)ccc1C(=O)N1CCn2nc(Cc3ccccc3)cc2C1 -2.54%, Cc1ccccc1C(=O)NCc1cccnc1Oc1cccc(C(F)(F)F)c1 -4.3%, Cc1nn(-c2ccccn2)c(C)c1[C@@H]1C=C[C@@H](NC(=O)NC(C)C)C1 -0.999% [at 57.5 µM], CC(C)NC(=O)c1ccnc(-c2ccccc2S(=O)(=O)NC(C)(C)C)c1 -0.0419%, O=C1NCCOCCCN(C(=O)C2(c3ccccc3)CC2)[C@H]2CCCC[C@@H]12 28.8%, OC[C@@H]1CN(CC2CCCCC2)C[C@H]1c1nc(C2CC2)no1 10.8%, CCS(=O)(=O)N1CCC(N2C(=O)C(OCC3CC3)C23CCCCC3)CC1 (centres undefined) -3.85%, CC(C)C1=NOC2(CCN([S+](=O)([O-])c3cccc(C(F)(F)F)c3)C2)C1 (centres undefined) -0.392%, COC[C@@H]1CN(S(=O)(=O)c2c(C)noc2C)C[C@H]1c1ccncc1 -0.785%, Cc1ccc(C(N)=O)cc1-c1cc(NCc2cccnc2)nc2[nH]ccc12 1.47%, Cn1c(=O)c2c(ncn2CC(=O)N2CCC(Cc3nc(C4CCOCC4)no3)CC2)n(C)c1=O 6.69%, COc1ccc(C[C@@H]2NC(=O)[C@@H]3C[C@@H](NC(=O)Nc4cccc(SC)c4)CCN3C2=O)cc1 4.23%, Cc1nn(CC(=O)NC(C)Cc2cnccn2)c(=O)n1CCc1ccccc1 (centres undefined) 0.454%, O=S(=O)(c1ccccc1)c1nnn2c1nc(N1CCCCC1)c1ccccc12 1.98%, COCC(=O)NC[C@H]1CCN(Cc2ccc(C)s2)C[C@H]1N(C)C -11.1%, COCCS(=O)(=O)c1ncc(CN(C)Cc2ccsc2)n1Cc1ccccc1 0.926%, Cc1ccccc1CN1CCOc2cc([S+](=O)([O-])Nc3cccnc3)ccc2C1 4.66% [at 57.5 µM], c1ccc(-c2ccc(CN3CCOC[C@H](Oc4cnccn4)C3)cc2)cc1 13.5% [at 57.5 µM], Cn1ncc2c(-c3ccc([S+](C)(=O)[O-])cc3)cc(C(=O)N3CCCC3)nc21 3.84%, COc1cccc(S(=O)(=O)N2CC3(Cc4ccccc4C(=O)N3)C2)c1 -0.576%, CN1C(=O)CC[C@]2(C(=O)NCc3cc(F)cc(F)c3)CCCC[C@@H]12 -4.96%, Cc1noc2c(NCc3ccccc3)cc(-c3cccnc3)nc12 6.07% [at 57.5 µM], O=C1CC(C(=O)O)C2(CCN(c3cc(C4CC4)ncn3)CC2)N1 (centres undefined) 10.9%, COCCN1CCCC(c2[nH]ccc2C(=O)NCCc2nc3ccccc3[nH]2)C1 (centres undefined) 0.729%, O=C(c1ccncc1)N1CCC2(CN[S+](=O)([O-])c3cnccc3O2)C1 (centres undefined) 1.58%, COC(=O)[C@H]1CN(C(=O)NC(C)C)CCN1C(=O)C1CCCCC1 4.98% [at 57.5 µM], O=C(c1cc(F)ccc1Cl)N1CCCC1c1nncn1Cc1ccncc1 (centres undefined) 3.12%, Cc1ncc2c(c1CNC(=O)c1ccc(OC(F)F)cc1)CCNC2 6.43%, CN(Cc1ccc(-c2ccccc2)cc1)CC1CCCCC1 4.21% [at 57.5 µM], Cc1cc(OC2CN(C(=O)c3ccccn3)C2)ccc1F 19.7% [at 57.5 µM], CCc1nnc([C@@H]2CC(F)(F)CN2C(=O)c2occc2C)o1 4.32%, COc1cccc(CN2C[C@@H](CO)[C@H](NC(=O)C3CCC3)C2)c1 -0.995%, CN(Cc1nc(-c2ccccc2)no1)C(=O)c1cccc(C2CCNC2)c1 (centres undefined) -0.217%, CC(=O)Nc1ccc(CN2CC[C@@H](c3ccc4c(c3)OCO4)[C@H](O)C2)cc1 -0.153%, CCN(C1CCOCC1)C1CN(C(=O)c2ccnn2C)C1 16%, O=C(Cn1c(=O)oc2ccccc21)N1CC2CC(C1)[C@H]1CCCC(=O)N1C2 (some centres undefined) 5.87%, COc1cccc(CN2CCC(C(=O)N3CCCCCCNC(=O)CC3)CC2)c1 -3.36%, O=C1OCC2(CCN(Cc3c[nH]c4ccccc34)C2)N1Cc1ccccc1 (centres undefined) 50.4% [at 57.5 µM], COCCNC(=O)c1cc(-c2ccc(Cl)nc2)nc2c1cnn2C 28.9% [at 57.5 µM], Cc1nn(-c2ccccc2)c2c1C(C(C)C)N(C1CCCN(C(=O)c3ccccc3F)C1)C2=O (centres undefined) -6.3%, CCOCCn1c(=O)n(Cc2cc(OC)ccn2)c2cc(C(=O)O)cnc21 15.3%, COc1ccc(CN2C(=O)COC[C@H]2C(=O)N2CCc3ccccc3C2)c(OC)c1 13.6%, O=C1COCC2(CN1)CN(C(=O)c1ccc(Cl)cc1)C2 0.381% [at 77.1 µM], CN(C)c1cccc(Oc2nnnn2[C@H]2CO[C@H]3[C@@H]2OC[C@@H]3NCC2CC2)c1 1.75% [at 57.5 µM], COc1ccc([C@@H]2CN(C(=O)CCc3c(C)noc3C)C[C@H]2N(C)C)cc1 -1.02%, CN(C)c1nc(NC2CC(c3cc(=O)[nH]c(C4CC4)n3)C2)ncc1F (centres undefined) -3.83%, CN(C)C(=O)N1CCN(c2ccc(Cl)nn2)C(=O)C1 7.94% [at 57.5 µM], COc1ccc(-c2[nH]ncc2CN2CC[C@H]3CC[C@@H](C2)N3)cc1 14.4%, Cc1noc(C)c1[S+](=O)([O-])N1CCCC1C(=O)N1CCC(c2nc3ccncc3[nH]2)CC1 (centres undefined) 22.3%, Cc1cccc(S(=O)(=O)N2[C@@H]3CC[C@H]2CC(NC(=O)c2ccncc2)C3)c1 (some centres undefined) 0.447%, CCN1CCN(C(=O)c2ccc3nc(-c4cccnc4)oc3c2)CC1 16.5%, COc1ccc(F)cc1-c1cccc(C(=O)NCCNC(=O)c2ccccc2Cl)c1 6.94%, CN(c1cc(=O)c2ccnc(-c3ccc(F)c(Cl)c3)c2o1)C1CCOCC1 -2.65% [at 57.5 µM], COc1ccccc1-c1cccc(C(=O)N2CCN([S+](=O)([O-])c3c(C)noc3C)CC2)c1 1.78%, Cn1nc2n(c1=O)CCN(C1CCSCC1)CC2 2.04%, Cn1cnnc1CC1CCNC1 (centres undefined) -6.74%, CC(C)c1nnc(C2CN(C(=O)c3ccc4ccccc4n3)CC23CCOCC3)o1 (centres undefined) 20.3%, O=C(O)c1cccc(C2CCCN(C(=O)c3c(F)cccc3Cl)C2)c1 (centres undefined) 7.93%, COC1CCN(CC2CCCCCN2C(=O)c2ccoc2)CC1 (centres undefined) -2.58%, CCS(=O)(=O)N[C@@H]1CN(C2CCOCC2)C[C@H]1CN(C)C -3.93%, CN(CC1CCOCC1)C(=O)NCc1ccco1 0.225%, COc1ccc(-c2cnc(Nc3ccc(CN4CCN(C)CC4)cc3)c3c2CCO3)cn1 71.5% [at 57.5 µM], O=[S+]1([O-])NCC2(CCN(Cc3ccccn3)CC2)Nc2ccccc21 -0.629%, CN1CCN([C@H]2[C@@H]3OC[C@@H](O3)[C@@H](NC(=O)Nc3ccccc3)[C@@H]2O)CC1 -5.52% [at 57.5 µM], COc1ccc(C(=O)N2CCC(C3CCN(S(C)(=O)=O)CC3)C2)cn1 (centres undefined) 10.8%, Cc1cnc(-c2ccncc2)n1CCNC(=O)NCc1ccc(F)cc1 -0.735%, CN(C)C(=O)N1CCC2(CC1)CC(c1cccc(C(F)(F)F)c1)=NO2 -0.151%, c1ccc(CC2=NOC3(CCCN(Cc4ccns4)C3)C2)cc1 (centres undefined) 0.667% [at 57.5 µM], COc1ccccc1CCC(=O)N1CCCC(c2[nH]ccc2C(N)=O)C1 (centres undefined) -2.39%, Cc1cc(C)cc(N2CCC(NS(=O)(=O)c3cn(C)c(C)n3)C2=O)c1 (centres undefined) 3.11%, Cc1cc(C(=O)N2CC[C@H](NS(=O)(=O)c3cn(C)cn3)C[C@H]2C(=O)N[C@H](Cc2c[nH]c3ccccc23)C(N)=O)n(C)n1 4.3%, Cc1ccccc1CN1C[C@H](O)C[C@H]1c1nc(C2CC2)no1 -2.68% [at 57.5 µM], Cc1nc(C)c(C(=O)N2CCC(Cc3nc(C4CC4)n[nH]3)CC2)s1 18.2%, O[C@@H]1CCN(Cc2nc(C3(O)CCN(Cc4ccccc4F)CC3)cs2)C1 7.83% [at 57.5 µM], CC(C)NC(=O)N1CCC(Oc2ccccc2)C1 (centres undefined) 7.68%, NC1CCc2n[nH]c(=O)n2CC1 (centres undefined) 25.4%, Cc1ccc(C(C)NC(=O)CN2C(=O)C3(CCNCC3)Nc3ccccc32)cc1 (centres undefined) 0.0058%, O=C(Nc1ccnn1C1CCN(Cc2ccc(-c3ccccc3)cc2)CC1)C1CC1 3.38%, FC(F)(F)c1cccc(-c2nccn3c(C4CN(Cc5ccc6cn[nH]c6c5)C4)ncc23)c1 33.2%, CCCNc1cc(N2CCC(CCC(=O)NCCN3CCCCCC3)CC2)ncn1 1.19%, COCCOCC(=O)N1CCCN(Cc2ccncc2)C(c2ccccc2)CC(=O)NCC1 (centres undefined) 0.853%, COc1ccc(C(C)NC(=O)c2cc3n(n2)CC(c2ccc(Cl)cc2)OC3)cc1OC (centres undefined) 15.8%, O=C(NCc1ccco1)C1CC(c2ccccc2)CN(C(=O)Nc2ccc(Cl)cc2)C1 (centres undefined) 1.23%, CCOC(=O)C1=CN(CC(=O)Nc2ccccc2C(F)(F)F)S(=O)(=O)N=C1C 7.85%
